Experimental data reported in PMC6769007.
No constants are given. Whether binding was seen depends on the method and setting. In cells and extracts the contact can be indirect. Some results given as binding are weak or reduced against the parent protein; the word gives no strength. Tags and fused reporters may be left off the sequences shown.

Target: T1, Flag-TRIM71 (human) (UniProt Q2Q1W2)
T1 sequence: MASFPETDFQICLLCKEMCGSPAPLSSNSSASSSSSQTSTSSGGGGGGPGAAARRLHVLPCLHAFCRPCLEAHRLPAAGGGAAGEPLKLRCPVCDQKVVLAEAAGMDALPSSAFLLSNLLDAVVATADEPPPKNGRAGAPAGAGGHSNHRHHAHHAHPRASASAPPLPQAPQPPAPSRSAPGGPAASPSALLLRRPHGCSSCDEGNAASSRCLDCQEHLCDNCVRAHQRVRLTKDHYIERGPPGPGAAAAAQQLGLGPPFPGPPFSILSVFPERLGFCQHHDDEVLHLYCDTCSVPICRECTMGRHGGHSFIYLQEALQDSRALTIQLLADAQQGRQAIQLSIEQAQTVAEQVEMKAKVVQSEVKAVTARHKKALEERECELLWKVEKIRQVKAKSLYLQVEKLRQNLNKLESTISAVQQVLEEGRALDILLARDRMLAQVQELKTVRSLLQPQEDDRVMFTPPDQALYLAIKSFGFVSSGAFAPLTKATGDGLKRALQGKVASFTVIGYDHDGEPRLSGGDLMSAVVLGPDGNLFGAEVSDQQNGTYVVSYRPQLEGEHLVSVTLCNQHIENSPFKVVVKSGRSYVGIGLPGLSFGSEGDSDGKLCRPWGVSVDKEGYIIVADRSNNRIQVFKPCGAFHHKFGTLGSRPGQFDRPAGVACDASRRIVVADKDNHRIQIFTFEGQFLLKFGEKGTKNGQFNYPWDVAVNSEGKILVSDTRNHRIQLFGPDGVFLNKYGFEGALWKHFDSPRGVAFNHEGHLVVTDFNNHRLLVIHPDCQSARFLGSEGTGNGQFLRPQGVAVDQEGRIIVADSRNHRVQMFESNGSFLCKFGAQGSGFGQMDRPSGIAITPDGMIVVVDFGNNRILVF
Test: co-IP; reverse co-IP with the anti-Flag antibody (Fig. 1c); HCT116 p53-/- cells transfected with Flag-TRIM71 and mtp53s or wtp53

- binding: binds weakly
Substance: wild-type p53 (exogenous) (from UniProt P04637 1-393)
